Taken from: PubChem BioAssay AID1259308 (NCATS, 2017)

Screen: 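Candidate targets for better recombinant protein yield in mammalian cells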 (primary screen)
Cells: human HEK293 embryonic kidney cells stably expressing firefly luciferase (HEK-CMV-Luc2-Hygro)
Knock-down reagent: single siRNA against human genes, 0.8 pmol siRNA per well
Duration: 72 h
Measured: 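Reporter luminescence and viable-cell signal on separate replicate plates, given as percent of non-targeting control and median/MAD z-scores, plus per-cell luciferase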
Scale: total luciferase, z-score and total luciferase, % of control: higher = more reporter protein produced; luciferase per cell, z-score: higher = more reporter output per viable cell
Active means: 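An siRNA counts as active if its total luciferase robust z-score exceeds 3; genes with two or more such siRNAs out of three were retested with fresh siRNAs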
Calls: active = raised luciferase; inactive = no rise
The whole screen tested about 59,000 reagents; this is a part drawn at random. About 1,510 of all reagents (2.6%) were called active. 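Calls use total luciferase alone and ignore viability, so some active siRNAs may act by altering cell number.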 Entries without a mark were called inactive. Not all columns of the deposit are shown. No sequences are given here.

gene | PubChem SID | total luciferase, z-score | total luciferase, % of control | luciferase per cell, z-score
NUSAP1 (nucleolar and spindle associated protein 1) | SID160740313 | -1.28 | 56.4 | -0.869
NUSAP1 (nucleolar and spindle associated protein 1) | SID160740314 | 0.654 | 94.9 | 0.742
NUSAP1 (nucleolar and spindle associated protein 1) | SID160740315 | -0.968 | 62.6 | -1.36
CSN2 (casein beta) | SID160732527 | 2.16 | 125 | 2.45
CSN2 (casein beta) | SID160749278 | -1.5 | 52 | -0.954
CSN2 (casein beta) | SID160749289 | 0.0342 | 82.6 | 0.151
PIEZO1-AS1 (PIEZO1 antisense RNA 1) | SID160725076 | -0.612 | 69.7 | -0.625
PIEZO1-AS1 (PIEZO1 antisense RNA 1) | SID160764144 | 1.42 | 110 | 2.04
PIEZO1-AS1 (PIEZO1 antisense RNA 1) | SID160764145 | -1.16 | 58.7 | -0.291
ZBTB12 (zinc finger and BTB domain containing 12) | SID160761722 | 0.49 | 91.6 | 0.483
ZBTB12 (zinc finger and BTB domain containing 12) | SID160761723 | -2.38 | 34.5 | -2.54
ZBTB12 (zinc finger and BTB domain containing 12) | SID160761724 | 1.67 | 115 | 1.1
TBCB (tubulin folding cofactor B) | SID160743727 | 0.395 | 89.7 | -0.073
TBCB (tubulin folding cofactor B) | SID160743737 | -1.36 | 54.9 | -0.128
TBCB (tubulin folding cofactor B) | SID160743748 | -2.29 | 36.3 | -2.5
TOPBP1 (DNA topoisomerase II binding protein 1) | SID160729882 | 2.05 | 123 | 1.25
TOPBP1 (DNA topoisomerase II binding protein 1) | SID160729883 | -0.923 | 63.5 | -1.32
TOPBP1 (DNA topoisomerase II binding protein 1) | SID160729884 | -0.25 | 76.9 | -0.568
SKIDA1 (SKI/DACH domain containing 1) | SID160733185 | -0.387 | 74.2 | -0.525
SKIDA1 (SKI/DACH domain containing 1) | SID160765614 | 0.733 | 96.5 | 0.755
SKIDA1 (SKI/DACH domain containing 1) | SID160765615 | -0.945 | 63.1 | -1.24
HNRNPA1P4 (heterogeneous nuclear ribonucleoprotein A1 pseudogene 4) | SID160766256 | -1.13 | 59.5 | -1.01
HNRNPA1P4 (heterogeneous nuclear ribonucleoprotein A1 pseudogene 4) | SID160766257 | -0.879 | 64.4 | -1.27
HNRNPA1P4 (heterogeneous nuclear ribonucleoprotein A1 pseudogene 4) | SID160766258 | -0.199 | 77.9 | -0.769
CSK (C-terminal Src kinase) | SID160730641 | 0.177 | 85.4 | -0.197
CSK (C-terminal Src kinase) | SID160749216 | -0.074 | 80.4 | -0.296
CSK (C-terminal Src kinase) | SID160749237 | 2.23 | 126 | 0.634
RPP14 (ribonuclease P/MRP subunit p14) | SID160729947 | -0.614 | 69.7 | -0.714
RPP14 (ribonuclease P/MRP subunit p14) | SID160729949 | -1.34 | 55.3 | -1.35
RPP14 (ribonuclease P/MRP subunit p14) | SID160729950 | 0.0634 | 83.1 | -0.0876
CFAP210 (cilia and flagella associated protein 210) | SID160756913 | 0.282 | 87.5 | -0.14
CFAP210 (cilia and flagella associated protein 210) | SID160756914 | 0.046 | 82.8 | -0.245
CFAP210 (cilia and flagella associated protein 210) | SID160756915 | 0.178 | 85.4 | 0.204
PPARGC1B (PPARG coactivator 1 beta) | SID160757254 | 1.17 | 105 | 1.13
PPARGC1B (PPARG coactivator 1 beta) | SID160757255 | 2.11 | 124 | 2.61
PPARGC1B (PPARG coactivator 1 beta) | SID160757256 | -0.319 | 75.5 | 0.557
KLF4 (KLF transcription factor 4) | SID160721918 | 0.934 | 100 | 0.984
KLF4 (KLF transcription factor 4) | SID160721919 | 0.0568 | 83 | 0.236
KLF4 (KLF transcription factor 4) | SID160721920 | 0.363 | 89.1 | 0.109

Targets listed so far whose target name starts with H or h:
gene | PubChem SID | total luciferase, z-score | total luciferase, % of control | luciferase per cell, z-score
HNRNPA1P4 (heterogeneous nuclear ribonucleoprotein A1 pseudogene 4) | SID160766256 | -1.13 | 59.5 | -1.01
HNRNPA1P4 (heterogeneous nuclear ribonucleoprotein A1 pseudogene 4) | SID160766257 | -0.879 | 64.4 | -1.27
HNRNPA1P4 (heterogeneous nuclear ribonucleoprotein A1 pseudogene 4) | SID160766258 | -0.199 | 77.9 | -0.769
